Experimental data from the supplement of paper PMC12823440, “Inhibitors supercharge kinase turnover through native proteolytic circuits” (Nature, 2025).
The other results are listed elsewhere or left out. The calls rarely recur for the same compound in another form.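 Kinases, fused to nanoluciferase, were expressed in K562 cells; luminescence was measured every 4 h from 2 to 18 h as percent of control (DMSO = 100%, positive control = 0%). A time point is decreased if signal falls significantly (2 sigma). Hits were called by the authors by a rule that is not shown; the count of time points alone does not decide it.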

Sequences of proteins named here, by UniProt entry; tags and fusion partners are left off. A change or cut given only in a name is not applied to a line headed by its entry.
UniProt P29317, whole entry: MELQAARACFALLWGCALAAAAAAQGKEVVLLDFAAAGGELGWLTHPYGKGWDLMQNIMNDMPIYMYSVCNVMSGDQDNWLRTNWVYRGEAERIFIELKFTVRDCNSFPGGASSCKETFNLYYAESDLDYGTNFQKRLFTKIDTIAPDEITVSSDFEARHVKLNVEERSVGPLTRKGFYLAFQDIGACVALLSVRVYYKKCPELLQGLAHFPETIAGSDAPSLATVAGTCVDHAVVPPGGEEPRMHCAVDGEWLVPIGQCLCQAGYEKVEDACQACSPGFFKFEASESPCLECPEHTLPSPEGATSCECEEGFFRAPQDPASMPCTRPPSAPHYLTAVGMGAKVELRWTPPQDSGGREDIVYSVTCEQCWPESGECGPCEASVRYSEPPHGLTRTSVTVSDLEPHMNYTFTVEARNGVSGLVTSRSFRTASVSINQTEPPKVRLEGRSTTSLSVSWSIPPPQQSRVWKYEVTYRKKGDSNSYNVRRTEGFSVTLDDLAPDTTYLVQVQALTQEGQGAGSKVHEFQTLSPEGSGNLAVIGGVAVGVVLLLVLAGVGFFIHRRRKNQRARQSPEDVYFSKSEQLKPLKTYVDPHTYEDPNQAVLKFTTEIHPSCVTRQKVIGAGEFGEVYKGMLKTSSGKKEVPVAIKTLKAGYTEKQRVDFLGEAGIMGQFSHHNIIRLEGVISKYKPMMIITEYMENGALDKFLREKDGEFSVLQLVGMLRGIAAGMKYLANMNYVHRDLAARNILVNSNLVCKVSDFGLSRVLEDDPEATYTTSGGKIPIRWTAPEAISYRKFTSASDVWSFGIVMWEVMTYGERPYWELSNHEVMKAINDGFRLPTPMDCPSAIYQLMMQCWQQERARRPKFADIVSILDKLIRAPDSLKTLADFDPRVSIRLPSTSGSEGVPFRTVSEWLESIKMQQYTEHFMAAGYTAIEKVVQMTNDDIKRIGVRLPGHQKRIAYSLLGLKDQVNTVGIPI
UniProt Q15303, whole entry R711C: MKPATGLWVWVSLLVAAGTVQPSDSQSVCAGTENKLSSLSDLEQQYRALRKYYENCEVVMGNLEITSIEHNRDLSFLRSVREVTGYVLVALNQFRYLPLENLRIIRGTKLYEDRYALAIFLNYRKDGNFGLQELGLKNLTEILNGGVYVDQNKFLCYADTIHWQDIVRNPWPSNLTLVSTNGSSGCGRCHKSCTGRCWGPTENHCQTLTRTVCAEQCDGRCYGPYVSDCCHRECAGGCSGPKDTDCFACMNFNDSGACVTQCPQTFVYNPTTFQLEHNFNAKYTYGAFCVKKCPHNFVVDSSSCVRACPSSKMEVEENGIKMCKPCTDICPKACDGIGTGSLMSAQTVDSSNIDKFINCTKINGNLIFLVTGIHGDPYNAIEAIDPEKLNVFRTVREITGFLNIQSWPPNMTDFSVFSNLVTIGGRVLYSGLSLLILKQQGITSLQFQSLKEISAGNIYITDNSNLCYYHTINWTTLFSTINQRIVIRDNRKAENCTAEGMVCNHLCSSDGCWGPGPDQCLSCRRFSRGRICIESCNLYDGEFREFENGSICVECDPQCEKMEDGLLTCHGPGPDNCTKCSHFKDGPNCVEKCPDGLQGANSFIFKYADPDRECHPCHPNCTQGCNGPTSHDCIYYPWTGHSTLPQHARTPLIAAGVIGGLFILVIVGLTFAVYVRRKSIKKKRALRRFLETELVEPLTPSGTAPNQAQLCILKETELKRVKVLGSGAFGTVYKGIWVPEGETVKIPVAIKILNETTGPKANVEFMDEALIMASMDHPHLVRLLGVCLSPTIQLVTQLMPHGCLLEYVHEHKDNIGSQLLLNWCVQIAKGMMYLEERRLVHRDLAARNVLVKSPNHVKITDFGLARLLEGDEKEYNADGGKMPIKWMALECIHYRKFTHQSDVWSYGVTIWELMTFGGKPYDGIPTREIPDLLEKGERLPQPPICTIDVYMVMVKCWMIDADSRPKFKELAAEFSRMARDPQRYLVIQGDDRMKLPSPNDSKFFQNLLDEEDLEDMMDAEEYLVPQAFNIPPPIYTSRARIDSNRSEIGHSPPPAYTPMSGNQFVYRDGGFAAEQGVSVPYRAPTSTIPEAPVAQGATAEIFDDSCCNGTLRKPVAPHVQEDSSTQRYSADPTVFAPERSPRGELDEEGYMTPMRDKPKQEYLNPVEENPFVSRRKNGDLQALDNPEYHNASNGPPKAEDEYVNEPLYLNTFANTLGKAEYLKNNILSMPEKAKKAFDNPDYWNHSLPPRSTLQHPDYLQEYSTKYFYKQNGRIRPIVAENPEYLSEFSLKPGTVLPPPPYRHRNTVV
UniProt O75460: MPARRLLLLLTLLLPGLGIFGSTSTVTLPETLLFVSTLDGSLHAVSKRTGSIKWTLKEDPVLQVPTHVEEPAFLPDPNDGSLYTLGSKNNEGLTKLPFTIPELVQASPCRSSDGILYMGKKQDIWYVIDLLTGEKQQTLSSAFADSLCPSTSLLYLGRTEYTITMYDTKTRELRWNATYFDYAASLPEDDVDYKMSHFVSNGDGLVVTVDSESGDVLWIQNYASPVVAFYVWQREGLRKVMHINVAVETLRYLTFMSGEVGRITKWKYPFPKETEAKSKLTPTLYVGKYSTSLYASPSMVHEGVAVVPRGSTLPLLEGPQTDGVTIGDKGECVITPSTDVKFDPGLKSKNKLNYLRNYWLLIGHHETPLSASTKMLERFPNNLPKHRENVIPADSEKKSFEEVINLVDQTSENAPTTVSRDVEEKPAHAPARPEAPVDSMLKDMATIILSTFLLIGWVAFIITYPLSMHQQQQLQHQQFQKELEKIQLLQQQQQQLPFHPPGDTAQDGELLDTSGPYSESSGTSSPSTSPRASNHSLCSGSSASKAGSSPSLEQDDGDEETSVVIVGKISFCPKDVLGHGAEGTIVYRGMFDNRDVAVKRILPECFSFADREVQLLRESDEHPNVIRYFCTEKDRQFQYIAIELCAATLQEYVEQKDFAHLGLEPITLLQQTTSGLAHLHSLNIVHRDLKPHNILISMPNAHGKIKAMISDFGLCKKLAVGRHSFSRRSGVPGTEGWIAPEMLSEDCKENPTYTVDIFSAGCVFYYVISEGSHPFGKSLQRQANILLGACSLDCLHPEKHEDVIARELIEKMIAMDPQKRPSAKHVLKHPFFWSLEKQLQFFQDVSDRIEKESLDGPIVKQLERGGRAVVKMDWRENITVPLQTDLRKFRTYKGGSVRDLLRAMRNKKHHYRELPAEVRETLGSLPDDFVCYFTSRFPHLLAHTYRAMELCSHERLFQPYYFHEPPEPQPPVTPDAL
UniProt P11362, whole entry, looked up: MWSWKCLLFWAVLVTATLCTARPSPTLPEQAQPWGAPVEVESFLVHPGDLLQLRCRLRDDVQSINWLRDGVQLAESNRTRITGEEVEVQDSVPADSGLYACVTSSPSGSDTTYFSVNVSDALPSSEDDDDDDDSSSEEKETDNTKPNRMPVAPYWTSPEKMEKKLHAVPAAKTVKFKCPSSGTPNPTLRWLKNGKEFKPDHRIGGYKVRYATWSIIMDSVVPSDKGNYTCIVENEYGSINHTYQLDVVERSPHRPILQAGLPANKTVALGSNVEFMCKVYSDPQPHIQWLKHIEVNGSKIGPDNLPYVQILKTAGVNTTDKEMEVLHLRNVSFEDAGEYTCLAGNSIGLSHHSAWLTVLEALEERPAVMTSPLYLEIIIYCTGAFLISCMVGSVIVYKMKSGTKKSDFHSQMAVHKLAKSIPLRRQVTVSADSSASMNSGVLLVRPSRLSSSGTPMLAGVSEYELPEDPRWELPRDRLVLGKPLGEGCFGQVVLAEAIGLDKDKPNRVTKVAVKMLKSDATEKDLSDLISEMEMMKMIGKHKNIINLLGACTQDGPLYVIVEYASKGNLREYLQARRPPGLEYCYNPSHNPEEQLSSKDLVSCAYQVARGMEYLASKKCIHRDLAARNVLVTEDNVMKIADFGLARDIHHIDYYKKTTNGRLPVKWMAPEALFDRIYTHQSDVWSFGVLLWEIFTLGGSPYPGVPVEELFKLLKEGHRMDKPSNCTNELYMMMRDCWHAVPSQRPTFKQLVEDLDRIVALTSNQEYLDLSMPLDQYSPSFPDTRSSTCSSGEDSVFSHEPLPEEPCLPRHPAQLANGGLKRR
UniProt P21802, whole entry, looked up: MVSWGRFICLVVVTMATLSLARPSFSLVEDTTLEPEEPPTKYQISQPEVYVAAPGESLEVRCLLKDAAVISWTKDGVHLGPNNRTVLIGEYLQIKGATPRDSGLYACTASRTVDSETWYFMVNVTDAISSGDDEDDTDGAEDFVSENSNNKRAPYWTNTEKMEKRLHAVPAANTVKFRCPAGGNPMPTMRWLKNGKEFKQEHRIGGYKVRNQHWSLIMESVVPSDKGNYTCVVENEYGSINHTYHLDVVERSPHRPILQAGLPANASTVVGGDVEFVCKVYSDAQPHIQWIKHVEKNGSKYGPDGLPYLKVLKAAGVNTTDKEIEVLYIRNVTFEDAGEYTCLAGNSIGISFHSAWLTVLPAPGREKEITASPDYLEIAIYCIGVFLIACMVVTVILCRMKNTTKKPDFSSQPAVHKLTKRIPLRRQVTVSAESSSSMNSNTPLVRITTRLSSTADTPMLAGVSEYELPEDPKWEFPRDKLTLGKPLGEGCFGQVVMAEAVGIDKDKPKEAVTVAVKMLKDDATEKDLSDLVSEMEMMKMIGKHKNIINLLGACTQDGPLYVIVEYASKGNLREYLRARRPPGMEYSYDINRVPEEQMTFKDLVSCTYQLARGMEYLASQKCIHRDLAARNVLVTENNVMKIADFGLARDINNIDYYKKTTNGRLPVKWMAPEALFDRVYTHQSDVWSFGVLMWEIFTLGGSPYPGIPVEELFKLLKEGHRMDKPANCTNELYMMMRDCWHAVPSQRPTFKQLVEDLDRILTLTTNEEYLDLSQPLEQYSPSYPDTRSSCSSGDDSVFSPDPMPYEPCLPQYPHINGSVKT
UniProt P22607, whole entry, looked up: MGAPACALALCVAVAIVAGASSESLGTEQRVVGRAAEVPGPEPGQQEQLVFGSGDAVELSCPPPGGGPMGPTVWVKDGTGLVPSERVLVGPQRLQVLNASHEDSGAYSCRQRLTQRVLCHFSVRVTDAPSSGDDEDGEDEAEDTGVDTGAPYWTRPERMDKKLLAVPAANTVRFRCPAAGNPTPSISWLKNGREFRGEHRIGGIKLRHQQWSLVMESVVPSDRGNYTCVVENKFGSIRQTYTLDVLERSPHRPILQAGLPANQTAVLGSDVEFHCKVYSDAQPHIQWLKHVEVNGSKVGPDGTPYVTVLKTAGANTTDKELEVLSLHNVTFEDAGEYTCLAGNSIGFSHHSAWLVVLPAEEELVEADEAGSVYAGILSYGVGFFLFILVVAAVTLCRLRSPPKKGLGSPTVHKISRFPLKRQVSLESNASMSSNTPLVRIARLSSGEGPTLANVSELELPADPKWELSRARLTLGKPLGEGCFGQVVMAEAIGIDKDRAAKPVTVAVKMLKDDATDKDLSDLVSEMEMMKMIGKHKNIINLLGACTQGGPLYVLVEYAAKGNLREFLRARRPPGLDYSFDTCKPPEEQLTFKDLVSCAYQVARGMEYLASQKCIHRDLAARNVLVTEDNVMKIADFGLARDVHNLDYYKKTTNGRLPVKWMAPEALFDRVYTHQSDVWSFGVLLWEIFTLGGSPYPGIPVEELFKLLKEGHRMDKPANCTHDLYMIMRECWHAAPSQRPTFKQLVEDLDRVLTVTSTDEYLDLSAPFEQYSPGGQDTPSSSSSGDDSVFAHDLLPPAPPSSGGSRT

Assays:
Test in all cases: number of time points (of 5) at which kinase-Nluc abundance scored as decreased, DMSO-normalised (count); higher = more persistent destabilization
Conditions in all cases: K562; 2-18 h
EGFR_L861Q = EGFR_L861Q (UniProt P00533)
EGFR_T790M = EGFR_T790M (UniProt P00533)
EPHA2 = EPHA2 (UniProt P29317)
ERBB3 = ERBB3 (UniProt P21860)
[1] = biological target: ERBB4_R711C (clone: ERBB4_mut) (UniProt Q15303)
ERN1 = ERN1 (UniProt O75460)
FGFR1 = FGFR1 (UniProt P11362)
FGFR2 = FGFR2 (UniProt P21802)
FGFR3 = FGFR3 (UniProt P22607)
FGR = FGR (UniProt P09769)

Measured: number of time points

Nc1cccc(S(=O)(=O)N2CCCN(S(=O)(=O)c3ccc4c(c3)OCCO4)CC2)c1 (10 µM)
0: all assays above

COc1c(C)c(C(=O)c2ccc(N)c(C(=O)O)c2)n2ccccc12 (10 µM)
0: all assays above

Cc1cc(C(C)Nc2ccccc2)c2nc(N3CCOCC3)cc(=O)n2c1 (stereo not given) (10 µM)
0: all assays above

COc1cc(C(=O)N2CCC(N3CCN(C)CC3)CC2)ccc1Nc1ncc2c(n1)N(C)c1ccccc1C(=O)N2C (10 µM)
0: all assays above

C=C(F)C(=O)N1CCN(c2nc(OC[C@@H]3CCCN3C)nc3c2CCN(c2cccc4cccc(Cl)c24)C3)C[C@@H]1CC#N (2.5 µM)
0: all assays above

CC(C)c1ccc(CC(=O)N2CCN(c3ccc(C#N)nn3)CC2)cc1 (10 µM)
0: all assays above

c1ccc(-c2nn3c(c2-c2ccnc4cc(OCCN5CCOCC5)ccc24)CCC3)nc1 (10 µM)
0: all assays above

Three compounds already listed, ordered by length of the SMILES, smallest number first.
Cc1cc(C(C)Nc2ccccc2)c2nc(N3CCOCC3)cc(=O)n2c1 (stereo not given) (10 µM)
0: all assays above

Nc1cccc(S(=O)(=O)N2CCCN(S(=O)(=O)c3ccc4c(c3)OCCO4)CC2)c1 (10 µM)
0: all assays above

COc1cc(C(=O)N2CCC(N3CCN(C)CC3)CC2)ccc1Nc1ncc2c(n1)N(C)c1ccccc1C(=O)N2C (10 µM)
0: all assays above

Remaining list, next part.

CC(=O)Nc1nc2ccc(-c3cnc(C)c(NC(=O)OC4CCCCC4)c3)cc2s1 (10 µM)
0: all assays above

CCc1c(C)sc(NC(=S)NC(=O)c2ccc(Cl)cc2)c1C(N)=O (10 µM)
0: all assays above

OCCN(CCO)c1ccc(C(c2ccc(Cl)cc2)c2ccc(N(CCO)CCO)cc2)cc1 (10 µM)
0: EGFR_L861Q | EGFR_T790M | FGFR1 | FGR
4: [1]
3: all other assays above

CCN1/C(=C/C(C)=O)Sc2ccc(OC)cc21 (10 µM)
3: ERBB3
2: [1]
0: EPHA2 | FGFR1 | FGFR2 | FGFR3
1: all other assays above

C=CC(=O)Nc1cccc(Oc2nc(Nc3ccc(N4CCN(C)CC4)cc3)nc3ccoc23)c1 [Poseltinib] (10 µM)
0: all assays above

CNC(=O)c1ccc(-c2cnc3cnc(-c4ccccc4)cn23)cc1 (10 µM)
0: all assays above

CC[C@H](C)[C@H](NC(=O)[C@H](CCC(=O)O)NC(=O)[C@H](CCCN=C(N)N)NC(=O)[C@H](CCCN=C(N)N)NC(=O)[C@@H](N)CCCCN)C(=O)N[C@@H](CC(C)C)C(=O)N[C@@H](CO)C(=O)N[C@@H](CCCN=C(N)N)C(=O)N[C@@H](CCCN=C(N)N)C(=O)N1CCC[C@H]1C(=O)N[C@@H](CO)C(=O)N[C@@H](Cc1ccc(O)cc1)C(=O)N[C@@H](CCCN=C(N)N)C(=O)O [CREBtide] (10 µM)
0: all assays above

Oc1ccccc1C(=S)N1CCCC1 (10 µM)
0: all assays above

Cc1cc(Nc2cc(CN3CCOCC3)c3nc(C)c(Cc4ccc(Cl)cc4F)n3n2)n[nH]1 [Gandotinib] (2.5 µM)
0: all assays above

CC(C)(C)C(=O)N1N=CC[C@H]1c1ccccc1 (10 µM)
0: all assays above

N#C/C(=C(/N)Sc1ccc(N)cc1)c1ccccc1C(F)(F)F (10 µM)
0: all assays above

CCC(C)(C)C(=O)N(O)Cc1ccccc1 (10 µM)
0: all assays above

O=c1nc(N2CCOCC2)oc2c(-c3cccc4c3sc3ccccc34)cccc12 (10 µM)
0: all assays above

CC[C@@H]1[C@H](F)C(=O)N[C@@H]1COc1nccc2cc(C(N)=O)c(OC)cc12 (10 µM)
0: all assays above

CN(CC(=O)N(Cc1ccc(C2CCCCC2)cc1)c1ccc(C(=O)O)c(O)c1)S(=O)(=O)c1c(F)c(F)c(F)c(F)c1F (2.5 µM)
0: all assays above
